In the assay the target is Tumor protein p53 (human (endogenous in A549 and SPC-A1)) (UniProt P04637). As to the kind of experiment: co-IP; A549 or SPC-A1 whole cell lysates, pre-cleared with Protein A/G PLUS-Agarose, immunoprecipitated with anti-p53 antibody (mock IgG as control), collected on Protein A/G PLUS-Agarose overnight at 4 °C, washed three times, western blot of endogenous proteins. On the technique in general: A western blot detects proteins with antibodies after separation by electrophoresis.

Consider one substance from PMC10759521.

Results are given in words; binding and its absence hold for the method and conditions named. In cells and extracts the contact can be indirect. Some binding calls cover weakened binding; strength is not graded here.

Regarding cullin 4 A (from UniProt Q13619 1-759), the binding result was “binds”.
